Test results taken from the supplement of paper PMC12823440, “Inhibitors supercharge kinase turnover through native proteolytic circuits” (Nature, 2025).
Where a name gives a salt, the structure may show the parent alone. This is one part of the list. Hit calls seldom repeat between salt and free forms of one compound.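 Kinases were expressed as nanoluciferase fusions in K562 cells and luminescence was read every 4 h between 2 and 18 h as percent of control, DMSO set to 100% and a positive control to 0%. A time point counts as decreased when the signal drops significantly (2 sigma). The hit call is the authors' own, does not follow from the count of time points alone, and its rule is not shown.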

Chains of the proteins cited; added tags and fusions are not shown. Lines headed by an entry give the natural chain unless they say otherwise; changes in a name come on top.
UniProt P07949, whole entry, looked up: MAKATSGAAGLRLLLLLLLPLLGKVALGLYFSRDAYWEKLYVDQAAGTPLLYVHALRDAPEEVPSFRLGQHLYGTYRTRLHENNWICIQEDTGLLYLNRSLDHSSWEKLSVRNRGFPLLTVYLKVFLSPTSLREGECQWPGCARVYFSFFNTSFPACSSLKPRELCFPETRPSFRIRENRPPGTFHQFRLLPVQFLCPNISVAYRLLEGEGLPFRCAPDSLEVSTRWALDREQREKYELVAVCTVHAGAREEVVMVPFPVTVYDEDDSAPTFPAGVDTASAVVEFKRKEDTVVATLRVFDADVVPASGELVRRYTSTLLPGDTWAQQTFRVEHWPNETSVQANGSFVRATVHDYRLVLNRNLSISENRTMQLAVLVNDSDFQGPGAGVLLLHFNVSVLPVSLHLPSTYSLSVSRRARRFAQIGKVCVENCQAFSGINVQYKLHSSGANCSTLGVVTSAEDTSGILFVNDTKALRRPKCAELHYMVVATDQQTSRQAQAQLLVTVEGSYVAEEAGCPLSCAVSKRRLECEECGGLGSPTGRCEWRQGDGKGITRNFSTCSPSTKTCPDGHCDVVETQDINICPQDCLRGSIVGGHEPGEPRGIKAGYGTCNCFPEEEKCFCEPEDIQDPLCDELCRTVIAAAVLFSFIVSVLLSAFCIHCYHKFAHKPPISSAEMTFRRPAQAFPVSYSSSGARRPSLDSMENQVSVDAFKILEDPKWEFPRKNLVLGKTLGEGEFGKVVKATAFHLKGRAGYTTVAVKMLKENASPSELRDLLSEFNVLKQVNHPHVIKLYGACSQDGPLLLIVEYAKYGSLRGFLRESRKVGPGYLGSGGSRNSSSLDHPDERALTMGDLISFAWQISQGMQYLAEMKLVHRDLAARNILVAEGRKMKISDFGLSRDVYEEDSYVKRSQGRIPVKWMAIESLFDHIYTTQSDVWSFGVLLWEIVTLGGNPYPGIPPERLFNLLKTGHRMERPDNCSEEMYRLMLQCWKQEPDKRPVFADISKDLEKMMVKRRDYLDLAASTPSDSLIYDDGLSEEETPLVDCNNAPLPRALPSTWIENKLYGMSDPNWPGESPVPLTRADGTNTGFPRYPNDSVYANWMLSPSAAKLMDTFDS
UniProt P07949, whole entry M918T, looked up: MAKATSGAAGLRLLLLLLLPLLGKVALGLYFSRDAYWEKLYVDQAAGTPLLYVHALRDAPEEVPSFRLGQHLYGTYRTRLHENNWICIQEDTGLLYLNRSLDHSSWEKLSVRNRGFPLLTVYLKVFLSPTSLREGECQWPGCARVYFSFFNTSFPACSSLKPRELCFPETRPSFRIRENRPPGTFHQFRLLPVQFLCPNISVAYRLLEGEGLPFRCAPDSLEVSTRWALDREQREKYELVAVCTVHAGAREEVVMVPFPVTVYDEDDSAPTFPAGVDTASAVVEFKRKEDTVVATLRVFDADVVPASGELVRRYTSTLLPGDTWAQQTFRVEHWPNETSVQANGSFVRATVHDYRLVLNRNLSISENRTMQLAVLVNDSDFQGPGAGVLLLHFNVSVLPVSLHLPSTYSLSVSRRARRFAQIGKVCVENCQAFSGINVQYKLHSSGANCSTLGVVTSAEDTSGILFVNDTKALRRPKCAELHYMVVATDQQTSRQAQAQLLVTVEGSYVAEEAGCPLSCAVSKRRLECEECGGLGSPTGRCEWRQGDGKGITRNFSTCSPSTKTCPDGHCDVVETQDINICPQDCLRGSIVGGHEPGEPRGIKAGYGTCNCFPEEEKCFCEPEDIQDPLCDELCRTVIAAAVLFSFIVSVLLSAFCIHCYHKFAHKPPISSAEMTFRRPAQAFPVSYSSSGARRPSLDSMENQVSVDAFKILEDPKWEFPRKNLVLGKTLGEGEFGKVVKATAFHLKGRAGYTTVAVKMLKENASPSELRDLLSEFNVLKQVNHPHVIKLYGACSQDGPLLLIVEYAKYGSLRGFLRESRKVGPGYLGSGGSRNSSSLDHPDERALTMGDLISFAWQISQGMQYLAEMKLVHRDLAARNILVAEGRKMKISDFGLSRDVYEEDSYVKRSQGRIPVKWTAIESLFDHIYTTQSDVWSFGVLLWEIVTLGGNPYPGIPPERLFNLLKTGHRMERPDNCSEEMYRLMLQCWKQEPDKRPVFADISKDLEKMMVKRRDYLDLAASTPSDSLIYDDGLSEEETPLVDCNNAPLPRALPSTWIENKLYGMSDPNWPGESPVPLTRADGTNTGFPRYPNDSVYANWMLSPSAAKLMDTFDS
UniProt Q9BRS2: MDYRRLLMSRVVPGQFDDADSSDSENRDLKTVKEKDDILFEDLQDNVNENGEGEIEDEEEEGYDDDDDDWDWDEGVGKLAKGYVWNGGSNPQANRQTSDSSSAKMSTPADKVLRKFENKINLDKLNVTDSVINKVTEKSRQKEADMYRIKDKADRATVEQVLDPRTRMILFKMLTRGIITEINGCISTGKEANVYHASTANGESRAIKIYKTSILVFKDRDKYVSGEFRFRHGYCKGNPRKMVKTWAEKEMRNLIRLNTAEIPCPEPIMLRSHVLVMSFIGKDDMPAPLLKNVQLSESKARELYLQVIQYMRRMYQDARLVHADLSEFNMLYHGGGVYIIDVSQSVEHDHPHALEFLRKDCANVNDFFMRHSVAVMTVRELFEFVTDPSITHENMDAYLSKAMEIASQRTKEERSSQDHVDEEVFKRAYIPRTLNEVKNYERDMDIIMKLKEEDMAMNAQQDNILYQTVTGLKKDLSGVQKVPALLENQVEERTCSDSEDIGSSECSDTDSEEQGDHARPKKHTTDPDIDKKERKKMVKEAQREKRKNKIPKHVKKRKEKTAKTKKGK
UniProt Q13546: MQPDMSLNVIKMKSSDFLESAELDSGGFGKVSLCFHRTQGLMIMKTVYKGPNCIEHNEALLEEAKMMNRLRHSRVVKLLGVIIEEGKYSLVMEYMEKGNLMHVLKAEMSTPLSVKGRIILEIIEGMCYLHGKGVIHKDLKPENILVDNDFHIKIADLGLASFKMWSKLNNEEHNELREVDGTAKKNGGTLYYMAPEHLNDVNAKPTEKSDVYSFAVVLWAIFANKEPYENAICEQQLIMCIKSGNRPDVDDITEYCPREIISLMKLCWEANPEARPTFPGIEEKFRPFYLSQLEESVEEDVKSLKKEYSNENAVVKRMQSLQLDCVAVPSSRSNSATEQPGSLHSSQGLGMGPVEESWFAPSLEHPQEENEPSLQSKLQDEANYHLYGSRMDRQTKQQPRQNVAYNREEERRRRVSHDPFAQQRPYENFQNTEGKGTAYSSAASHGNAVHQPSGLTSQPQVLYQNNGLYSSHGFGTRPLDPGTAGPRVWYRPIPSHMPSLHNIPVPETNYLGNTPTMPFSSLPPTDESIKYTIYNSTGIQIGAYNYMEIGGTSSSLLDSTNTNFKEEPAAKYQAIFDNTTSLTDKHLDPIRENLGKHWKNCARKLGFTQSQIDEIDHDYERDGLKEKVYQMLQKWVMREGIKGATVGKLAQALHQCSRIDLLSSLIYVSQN
UniProt Q01974, whole entry: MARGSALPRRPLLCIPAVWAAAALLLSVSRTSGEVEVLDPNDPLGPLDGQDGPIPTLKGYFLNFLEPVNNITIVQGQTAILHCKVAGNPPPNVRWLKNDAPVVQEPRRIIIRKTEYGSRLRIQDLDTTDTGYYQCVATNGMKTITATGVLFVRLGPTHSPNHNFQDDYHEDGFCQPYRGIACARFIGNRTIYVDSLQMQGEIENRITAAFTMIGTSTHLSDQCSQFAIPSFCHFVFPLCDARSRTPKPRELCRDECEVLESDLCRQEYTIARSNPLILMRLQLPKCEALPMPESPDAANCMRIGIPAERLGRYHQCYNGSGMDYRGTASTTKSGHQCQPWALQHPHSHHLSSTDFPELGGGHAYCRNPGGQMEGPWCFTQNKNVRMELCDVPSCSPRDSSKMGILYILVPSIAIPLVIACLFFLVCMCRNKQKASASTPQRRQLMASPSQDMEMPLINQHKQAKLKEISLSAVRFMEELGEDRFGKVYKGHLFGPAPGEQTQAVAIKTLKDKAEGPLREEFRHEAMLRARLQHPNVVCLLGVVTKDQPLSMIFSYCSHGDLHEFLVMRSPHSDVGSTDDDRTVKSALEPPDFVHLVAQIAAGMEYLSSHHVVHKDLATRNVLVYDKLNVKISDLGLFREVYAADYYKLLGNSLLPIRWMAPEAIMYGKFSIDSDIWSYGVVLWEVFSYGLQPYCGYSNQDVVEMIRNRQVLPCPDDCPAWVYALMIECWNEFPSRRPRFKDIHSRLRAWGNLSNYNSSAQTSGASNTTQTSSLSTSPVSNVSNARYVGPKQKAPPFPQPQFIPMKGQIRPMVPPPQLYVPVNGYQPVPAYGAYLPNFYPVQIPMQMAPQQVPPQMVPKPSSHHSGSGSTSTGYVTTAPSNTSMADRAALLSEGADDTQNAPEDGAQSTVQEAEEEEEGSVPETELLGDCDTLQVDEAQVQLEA
UniProt Q15418, whole entry: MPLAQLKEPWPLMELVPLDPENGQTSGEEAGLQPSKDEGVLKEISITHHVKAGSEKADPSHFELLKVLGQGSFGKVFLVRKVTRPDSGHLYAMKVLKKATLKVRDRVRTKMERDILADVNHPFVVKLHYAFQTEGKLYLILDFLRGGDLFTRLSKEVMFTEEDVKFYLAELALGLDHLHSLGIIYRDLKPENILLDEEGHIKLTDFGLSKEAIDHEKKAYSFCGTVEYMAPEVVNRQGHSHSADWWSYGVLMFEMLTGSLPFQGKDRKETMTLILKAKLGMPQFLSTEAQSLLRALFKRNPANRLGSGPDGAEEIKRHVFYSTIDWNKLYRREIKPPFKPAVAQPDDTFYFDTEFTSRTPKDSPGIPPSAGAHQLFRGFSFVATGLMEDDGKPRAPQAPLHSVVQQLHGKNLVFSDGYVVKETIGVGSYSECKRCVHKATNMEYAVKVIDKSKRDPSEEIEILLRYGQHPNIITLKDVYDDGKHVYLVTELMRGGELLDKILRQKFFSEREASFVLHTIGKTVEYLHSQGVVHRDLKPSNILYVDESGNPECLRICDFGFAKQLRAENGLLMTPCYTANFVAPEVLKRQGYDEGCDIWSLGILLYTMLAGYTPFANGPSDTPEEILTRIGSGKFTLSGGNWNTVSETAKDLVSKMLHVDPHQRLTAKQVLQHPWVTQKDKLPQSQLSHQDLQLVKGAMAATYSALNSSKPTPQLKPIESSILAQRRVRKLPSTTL
UniProt Q9NYA1, whole entry: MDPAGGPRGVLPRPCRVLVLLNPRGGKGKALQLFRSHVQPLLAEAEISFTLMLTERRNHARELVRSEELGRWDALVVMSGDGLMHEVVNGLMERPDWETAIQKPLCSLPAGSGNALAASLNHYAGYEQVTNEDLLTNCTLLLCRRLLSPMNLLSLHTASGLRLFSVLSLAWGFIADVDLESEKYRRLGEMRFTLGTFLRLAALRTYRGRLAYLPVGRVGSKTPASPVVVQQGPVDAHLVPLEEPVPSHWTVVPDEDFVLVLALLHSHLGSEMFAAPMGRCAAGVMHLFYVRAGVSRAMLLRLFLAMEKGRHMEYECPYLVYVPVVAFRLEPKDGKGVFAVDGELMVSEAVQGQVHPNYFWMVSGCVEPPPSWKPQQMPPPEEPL
UniProt Q9Y6E0: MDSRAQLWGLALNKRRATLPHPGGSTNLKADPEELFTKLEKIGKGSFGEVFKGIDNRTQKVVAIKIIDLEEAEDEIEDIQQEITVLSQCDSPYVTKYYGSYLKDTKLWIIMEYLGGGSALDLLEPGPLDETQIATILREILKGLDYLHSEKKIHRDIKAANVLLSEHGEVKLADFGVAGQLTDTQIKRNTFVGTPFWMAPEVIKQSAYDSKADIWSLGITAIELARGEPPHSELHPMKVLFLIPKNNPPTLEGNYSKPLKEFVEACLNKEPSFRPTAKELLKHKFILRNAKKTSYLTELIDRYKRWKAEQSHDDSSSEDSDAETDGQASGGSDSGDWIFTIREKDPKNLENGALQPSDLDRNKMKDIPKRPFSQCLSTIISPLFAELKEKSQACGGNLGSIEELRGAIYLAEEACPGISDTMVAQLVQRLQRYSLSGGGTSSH

Legend:
Assay in all cases: kinase-Nluc reporter destabilization hit call (1 = scored as downregulated) (binary); higher = compound decreases kinase abundance
Conditions in all cases: K562; 2-18 h
[1] = molecular target: RET (UniProt P07949)
[2] = molecular target: RET_M918T (clone: RET_mut) (UniProt P07949)
[3] = molecular target: RIOK1 (UniProt Q9BRS2)
[4] = molecular target: RIPK1 (UniProt Q13546)
[5] = molecular target: RIPK2 (UniProt O43353)
[6] = molecular target: ROR2 (UniProt Q01974)
[7] = molecular target: RPS6KA1 (UniProt Q15418)
[8] = molecular target: SPHK1 (UniProt Q9NYA1)
[9] = molecular target: SRC (UniProt P12931)
[10] = molecular target: STK24 (UniProt Q9Y6E0)

Measured: kinase-Nluc reporter destabilization hit call

C[C@@H]1COCCN1c1cc(=O)n2c(n1)N(Cc1cncc(Cl)c1)[C@H](C(F)(F)F)CC2 (10 µM)
inactive: [1] 0 | [2] 0 | [3] 0 | [4] 0 | [5] 0 | [6] 0 | [7] 0 | [8] 0 | [9] 0 | [10] 0

Cc1cc2ncc(-c3ccccc3)nc2cc1C (10 µM)
inactive: [1] 0 | [2] 0 | [3] 0 | [4] 0 | [5] 0 | [6] 0 | [7] 0 | [8] 0 | [9] 0 | [10] 0

COc1ccc2c(c1OC)OC1c3ccc(O)cc3OCC21 (stereo not given) [Methylnissolin] (10 µM)
inactive: [1] 0 | [2] 0 | [3] 0 | [4] 0 | [5] 0 | [6] 0 | [7] 0 | [8] 0 | [9] 0 | [10] 0

COc1cc(C(C)=O)cc(OC)c1O [Acetosyringone] (10 µM)
inactive: [1] 0 | [2] 0 | [3] 0 | [4] 0 | [5] 0 | [6] 0 | [7] 0 | [8] 0 | [9] 0 | [10] 0

CC(C)N(C)c1nc2cc(C(=O)O)ccc2nc1-c1ccc(F)cc1 (10 µM)
inactive: [1] 0 | [2] 0 | [3] 0 | [4] 0 | [5] 0 | [6] 0 | [7] 0 | [8] 0 | [9] 0 | [10] 0

CN(C)c1ncnc2nc[nH]c12 [6-(Dimethylamino)purine] (10 µM)
inactive: [1] 0 | [2] 0 | [3] 0 | [4] 0 | [5] 0 | [6] 0 | [7] 0 | [8] 0 | [9] 0 | [10] 0

Taken from the listing, 2 compounds:
COc1cc(C(C)=O)cc(OC)c1O [Acetosyringone] (10 µM)
inactive: [1] 0 | [2] 0 | [3] 0 | [4] 0 | [5] 0 | [6] 0 | [7] 0 | [8] 0 | [9] 0 | [10] 0

CC(C)N(C)c1nc2cc(C(=O)O)ccc2nc1-c1ccc(F)cc1 (10 µM)
inactive: [1] 0 | [2] 0 | [3] 0 | [4] 0 | [5] 0 | [6] 0 | [7] 0 | [8] 0 | [9] 0 | [10] 0

Remaining list, next part

COc1ccc(-n2c(C)c([N+](=O)[O-])c3ccc(O)cc32)cc1 (10 µM)
inactive: [1] 0 | [2] 0 | [3] 0 | [4] 0 | [5] 0 | [6] 0 | [7] 0 | [8] 0 | [9] 0 | [10] 0

Cn1cc(-c2ccc3nnc(C(F)(F)c4ccc5ncccc5c4)n3n2)cn1 (10 µM)
inactive: [1] 0 | [2] 0 | [3] 0 | [4] 0 | [5] 0 | [6] 0 | [7] 0 | [8] 0 | [9] 0 | [10] 0

CCCCNC(=N)NC(=N)N [Buformin (hydrochloride)] (2.5 µM)
inactive: [1] 0 | [2] 0 | [3] 0 | [4] 0 | [5] 0 | [6] 0 | [7] 0 | [8] 0 | [9] 0 | [10] 0

CCN1/C(=C/C(C)=O)Sc2ccc(OC)cc21 (10 µM)
inactive: [1] 0 | [2] 0 | [3] 0 | [4] 0 | [5] 0 | [6] 0 | [7] 0 | [8] 0 | [9] 0 | [10] 0

C=CC(=O)Nc1cccc(Oc2nc(Nc3ccc(N4CCN(C)CC4)cc3)nc3ccoc23)c1 [Poseltinib] (10 µM)
inactive: [1] 0 | [2] 0 | [3] 0 | [4] 0 | [5] 0 | [6] 0 | [7] 0 | [8] 0 | [9] 0 | [10] 0

CCCCOc1ccc(CC/C=C2\SC(=O)N(CCN)C2=O)cc1 [K145 (hydrochloride)] (2.5 µM)
inactive: [1] 0 | [2] 0 | [3] 0 | [4] 0 | [5] 0 | [6] 0 | [7] 0 | [8] 0 | [9] 0 | [10] 0

COc1cc2ncnc(Nc3ccc(NC(=O)c4ccccc4)cc3)c2cc1OC [Aurora kinase inhibitor-2] (2.5 µM)
inactive: [1] 0 | [2] 0 | [3] 0 | [4] 0 | [5] 0 | [6] 0 | [7] 0 | [8] 0 | [9] 0 | [10] 0

c1ccc(-c2oc3ncnc(NC[C@@H]4CCCO4)c3c2-c2ccccc2)cc1 (2.5 µM)
inactive: [1] 0 | [2] 0 | [3] 0 | [4] 0 | [5] 0 | [6] 0 | [7] 0 | [8] 0 | [9] 0 | [10] 0

CC[C@@H](N)CNc1ccnc(-c2cc(-c3cnn(C)c3)ccc2O)n1 (2.5 µM)
inactive: [1] 0 | [2] 0 | [3] 0 | [4] 0 | [5] 0 | [6] 0 | [7] 0 | [8] 0 | [9] 0 | [10] 0

Oc1ccccc1C(=S)N1CCCC1 (10 µM)
inactive: [1] 0 | [2] 0 | [3] 0 | [4] 0 | [5] 0 | [6] 0 | [7] 0 | [8] 0 | [9] 0 | [10] 0

CCCC(=O)Nc1nc2c(ncn2[C@@H]2O[C@@H]3COP(=O)(O)O[C@H]3[C@H]2OC(=O)CCC)c(=O)[nH]1 [Dibutyryl-cGMP (sodium)] (10 µM)
inactive: [1] 0 | [2] 0 | [3] 0 | [4] 0 | [5] 0 | [6] 0 | [7] 0 | [8] 0 | [9] 0 | [10] 0

COc1nc(-c2ccnc(NC(=O)C3CC3)c2)sc1C(N)=O [GSK-3β inhibitor 2] (10 µM)
inactive: [1] 0 | [2] 0 | [3] 0 | [4] 0 | [5] 0 | [6] 0 | [7] 0 | [8] 0 | [9] 0 | [10] 0

COc1cc(-c2cc(-c3cc(OC)c(OC)c(OC)c3)cc(C(F)P(=O)(OCOC(=O)C(C)(C)C)OCOC(=O)C(C)(C)C)c2)cc(OC)c1OC (stereo not given) [Stafia-1-dipivaloyloxymethyl ester] (2.5 µM)
inactive: [1] 0 | [2] 0 | [3] 0 | [4] 0 | [5] 0 | [6] 0 | [7] 0 | [8] 0 | [9] 0 | [10] 0

CC(=O)NCCc1c[nH]c2ccc(O)cc12 [N-Acetyl-5-hydroxytryptamine] (10 µM)
inactive: [1] 0 | [2] 0 | [3] 0 | [4] 0 | [5] 0 | [6] 0 | [7] 0 | [8] 0 | [9] 0 | [10] 0

CC(C)(C)Cn1c(N)nc2ccc(-c3[nH]c(C(C)(C)C)nc3-c3ccc(F)cc3)nc21 [Ralimetinib dimesylate] (2.5 µM)
inactive: [1] 0 | [2] 0 | [3] 0 | [4] 0 | [5] 0 | [6] 0 | [7] 0 | [8] 0 | [9] 0 | [10] 0

O=C(O)c1ccc(N2N=C(Cc3ccccc3)C(=Cc3ccc(-c4ccccc4F)o3)C2=O)cc1 (10 µM)
inactive: [1] 0 | [2] 0 | [3] 0 | [4] 0 | [5] 0 | [6] 0 | [7] 0 | [8] 0 | [9] 0 | [10] 0

CC(=O)Nc1nc(C)c(-c2nc(N3CCCC(O)C3)no2)s1 (stereo not given) (10 µM)
inactive: [1] 0 | [2] 0 | [3] 0 | [4] 0 | [5] 0 | [6] 0 | [7] 0 | [8] 0 | [9] 0 | [10] 0

COc1cnccc1Nc1nc(-c2nn(Cc3c(F)cc(OCCO)cc3F)c3ccccc23)ncc1OC (10 µM)
inactive: [1] 0 | [2] 0 | [3] 0 | [4] 0 | [5] 0 | [6] 0 | [7] 0 | [8] 0 | [9] 0 | [10] 0

C=C[C@H]1[C@H](O[C@@H]2O[C@H](CO)[C@@H](O)[C@H](O)[C@H]2OC(=O)c2c(O)cc(O)cc2-c2cccc(O)c2)OC=C2C(=O)OCC[C@H]21 [Amarogentin] (10 µM)
inactive: [1] 0 | [2] 0 | [3] 0 | [4] 0 | [5] 0 | [6] 0 | [7] 0 | [8] 0 | [9] 0 | [10] 0

COC(=O)[C@@]1(C)CC[C@]2(C(=O)O)CC[C@]3(C)C(=CC[C@@H]4[C@@]5(C)C[C@H](O)[C@H](O[C@@H]6OC[C@@H](O[C@@H]7O[C@H](CO)[C@@H](O)[C@H](O)[C@H]7O)[C@H](O)[C@H]6O)[C@@](C)(CO)[C@@H]5CC[C@]43C)[C@@H]2C1 [Esculentoside A] (10 µM)
inactive: [1] 0 | [2] 0 | [3] 0 | [4] 0 | [5] 0 | [6] 0 | [7] 0 | [8] 0 | [9] 0 | [10] 0
